{"source": "PubChem BioAssay AID1259308 (NCATS, 2017)", "test": "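Knock-downs that increase output of a recombinant reporter protein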 (primary screen)", "cells": "human HEK293 embryonic kidney cells stably expressing firefly luciferase (HEK-CMV-Luc2-Hygro)", "knock-down reagent": "single siRNA against human genes, 0.8 pmol siRNA per well", "time to read-out": "72 h", "measurement": "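Reporter luminescence and viable-cell signal on separate replicate plates, given as percent of non-targeting control and median/MAD z-scores, plus per-cell luciferase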", "direction": "total luciferase, z-score: higher = more reporter protein produced", "rule for the call": "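Active when the median/MAD z-score for overall luciferase is greater than 3; a gene was taken forward for validation with new siRNAs if at least two of its three siRNAs passed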", "meaning of the calls": "active = raised luciferase; inactive = no rise", "note": "Shown is a random part of about 59,000 reagents. About 1,510 of all reagents (2.6%) count as active. 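Calls use total luciferase alone and ignore viability, so some active siRNAs may act by altering cell number.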 The numbers tell different reagents against one gene apart. Further read-outs or replicates are left out here."}
{"gene symbol": "FOXA1", "reagent": 1, "total luciferase, z-score": 0.354, "outcome": "inactive"}
{"gene symbol": "FOXA1", "reagent": 2, "total luciferase, z-score": -1.48, "outcome": "inactive"}
{"gene symbol": "FOXA1", "reagent": 3, "total luciferase, z-score": -0.154, "outcome": "inactive"}
{"gene symbol": "IGLL3P", "reagent": 1, "total luciferase, z-score": 2.24, "outcome": "inactive"}
{"gene symbol": "IGLL3P", "reagent": 2, "total luciferase, z-score": -0.681, "outcome": "inactive"}
{"gene symbol": "IGLL3P", "reagent": 3, "total luciferase, z-score": 1.47, "outcome": "inactive"}
{"gene symbol": "LOC340089", "reagent": 1, "total luciferase, z-score": -1.22, "outcome": "inactive"}
{"gene symbol": "LOC340089", "reagent": 2, "total luciferase, z-score": 0.21, "outcome": "inactive"}
{"gene symbol": "LOC340089", "reagent": 3, "total luciferase, z-score": -0.252, "outcome": "inactive"}

Records listed so far whose gene name begins with F or f (3):
{"gene symbol": "FOXA1", "reagent": 1, "total luciferase, z-score": 0.354, "outcome": "inactive"}
{"gene symbol": "FOXA1", "reagent": 2, "total luciferase, z-score": -1.48, "outcome": "inactive"}
{"gene symbol": "FOXA1", "reagent": 3, "total luciferase, z-score": -0.154, "outcome": "inactive"}

The listing continues.
{"gene symbol": "RPL21P106", "reagent": 1, "total luciferase, z-score": 0.109, "outcome": "inactive"}
{"gene symbol": "RPL21P106", "reagent": 2, "total luciferase, z-score": 0.102, "outcome": "inactive"}
{"gene symbol": "RPL21P106", "reagent": 3, "total luciferase, z-score": -1.9, "outcome": "inactive"}
{"gene symbol": "ITIH4", "reagent": 1, "total luciferase, z-score": -0.946, "outcome": "inactive"}
{"gene symbol": "ITIH4", "reagent": 2, "total luciferase, z-score": 1.69, "outcome": "inactive"}
{"gene symbol": "ITIH4", "reagent": 3, "total luciferase, z-score": 0.114, "outcome": "inactive"}
{"gene symbol": "KLK1", "reagent": 1, "total luciferase, z-score": 0.283, "outcome": "inactive"}
{"gene symbol": "KLK1", "reagent": 2, "total luciferase, z-score": 0.872, "outcome": "inactive"}
{"gene symbol": "KLK1", "reagent": 3, "total luciferase, z-score": 3.58, "outcome": "active"}
{"gene symbol": "PPP1R11", "reagent": 1, "total luciferase, z-score": -1.53, "outcome": "inactive"}
{"gene symbol": "PPP1R11", "reagent": 2, "total luciferase, z-score": 1.4, "outcome": "inactive"}
{"gene symbol": "PPP1R11", "reagent": 3, "total luciferase, z-score": 1.47, "outcome": "inactive"}
